Laboratory results: PubChem BioAssay AID686937 (Drosophila RNAi Screening Center, 2013)
Assay: 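Genes whose loss weakens secretory pathway function in fly cells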 (primary screen). Cell system: Drosophila S2 cells expressing secreted horseradish peroxidase. Knock-down reagent: long dsRNA against Drosophila genes. Duration: about 5.5 days (5 days dsRNA, then 12 h reporter induction). Treatment: reporter expression induced after 5 days of dsRNA, read 12 h later; inducer not stated. Measured: 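Chemiluminescent measurement of peroxidase in the medium 12 h after reporter induction, following 5 days of dsRNA, given as a z-score per plate; higher means more secretion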. Scale: z-score: higher = more reporter secreted into medium.
In all, the deposit lists about 23,000 reagents; below is an unselected part of those with a known target gene and a result. 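Reduced-secretion tags in replicate 1 do not always agree with the z-scores; no criterion for assigning the tags was given.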 A plus sign joins genes that one reagent is predicted to hit. Further read-outs or replicates are left out here. Reagent sequences are not shown. Not given: the amount of reagent.

target gene | DRSC id | z-score, replicate 1 | z-score, replicate 2 | z-score, replicate 3 | z-score, replicate 4
CG6209 | DRSC06968 | 0.26 | 0.26 | – | –
l(1)G0320 (lethal (1) G0320) | DRSC18255 | 0.21 | 0.23 | – | –
CG13594 | DRSC04229 | 0.65 | 0.42 | – | –
Nak (Numb-associated kinase) | DRSC03379 | 0.38 | 0.27 | – | –
CG17290 | DRSC06662 | 0.54 | 0.63 | – | –
CG14818 | DRSC18548 | 0.06 | 0.3 | – | –
CG10559 | DRSC14255 | -0.07 | -8.77 | – | –
slmb (supernumerary limbs) | DRSC17056 | 0.33 | 0.35 | – | –
LManIV (Lysosomal alpha-mannosidase IV) | DRSC03222 | 0.35 | 0.41 | – | –
snoRNA:Me28S-C3227a + snoRNA:Me18S-A1061 + snoRNA:Me28S-C3227b + 7 more | DRSC05497 | 0.46 | -7.39 | 0.29 | -8.37
CG11444 | DRSC17784 | 0.57 | 0.3 | – | –
snRNA:U1:95Cc + CG43285 (retired record) | DRSC13640 | -2.6 | -0.7 | – | –
Lgr3 (Leucine-rich repeat-containing G protein-coupled receptor 3) | DRSC15704 | 0.42 | 0.3 | – | –
Lgr3 (Leucine-rich repeat-containing G protein-coupled receptor 3) | DRSC15706 | -0.2 | -0.24 | – | –
Atat (alpha-tubulin acetylase) | DRSC10392 | 0.19 | 0.11 | – | –
CG4630 | DRSC06874 | 0.31 | 0.5 | – | –
Ak3 (Adenylate kinase 3) | DRSC16075 | 0.11 | 0.81 | – | –
mthl2 (methuselah-like 2) | DRSC10287 | 0.11 | 0.25 | – | –
Tsp42Eo (Tetraspanin 42Eo) | DRSC06184 | 0.33 | 0.2 | – | –
CG17219 | DRSC00486 | 0.54 | 0.49 | – | –
CG14280 | DRSC14761 | 0.21 | 0.22 | – | –
TotE (Turandot E) | DRSC21355 | 0.41 | -0.86 | – | –
CG17036 | DRSC02564 | 0.49 | 0.3 | – | –
Not10 (CCR4-NOT transcription complex subunit 10) | DRSC14129 | 0.34 | 0.33 | – | –
CG10357 | DRSC08155 | 0.32 | 0.18 | – | –
CG12147 | DRSC12192 | 0.42 | 0.48 | – | –
CG11842 | DRSC14400 | 0.48 | 0.68 | – | –
CG7294 | DRSC03041 | -0.16 | 0.42 | – | –
CG17361 | DRSC10266 | 0.59 | 0.52 | – | –
e(y)3 (enhancer of yellow 3) | DRSC19450 | -0.51 | -0.12 | – | –
CG13040 | DRSC09921 | 0.36 | 0.47 | – | –
Ada1-1 + Ada1-2 | DRSC01220 | 0.97 | 0.73 | – | –
Ada1-1 + Ada1-2 | DRSC01222 | 0.59 | 0.58 | – | –
Strip (Striatin interacting protein) | DRSC08194 | -0.29 | -0.56 | – | –
mad2 | DRSC10274 | -0.71 | -0.75 | – | –
CG15820 | DRSC08480 | 0.18 | 0.31 | – | –
Obp59a (Odorant-binding protein 59a) | DRSC04160 | 0.12 | -0.07 | – | –
CG12674 | DRSC00348 | 0.18 | -0.01 | – | –
Gr47b (Gustatory receptor 47b) | DRSC05275 | 0.26 | 0.09 | – | –
Acf (ATP-dependent chromatin assembly factor large subunit) | DRSC14101 | 0.42 | 0.61 | – | –
CG15745 (retired record) | DRSC19711 | 0.38 | 0.5 | – | –
CG43901 | DRSC19397 | 0.04 | 0.34 | – | –
CG43901 | DRSC19652 | -3.35 | -1.24 | – | –
CG43901 | DRSC19653 | 0.12 | 0.26 | 0.18 | 0.27
CG43901 | DRSC22791 | 0.03 | -0.91 | – | –
Kots (Kotsubu) | DRSC16581 | 0.24 | 0.09 | – | –
otk2 (off-track2) | DRSC07303 | 0.31 | 0.31 | – | –
Mal-A1 (Maltase A1) | DRSC07461 | 0.33 | 0.32 | – | –
mus201 + Chrac-14 | DRSC03568 | 0.7 | 0.38 | – | –
mus201 + Chrac-14 | DRSC03575 | 0.44 | 0.13 | – | –
CG31793 | DRSC02605 | 0.24 | 0.25 | – | –
Cyp304a1 (Cytochrome P450 304a1) | DRSC16623 | 0.47 | 0.07 | – | –
Gr22e (Gustatory receptor 22e) | DRSC20912 | -0.78 | -0.36 | – | –
Fur2 (Furin 2) | DRSC19817 | -0.14 | 0.06 | – | –
Kmn1 (kinetochore Mis12-Ndc80 network component 1) | DRSC19666 | -0.89 | -1.13 | – | –
Ir52a (Ionotropic receptor 52a) | DRSC06262 | 0.5 | 0.5 | – | –
CG17068 | DRSC20545 | 0.21 | 0.07 | – | –

Targets listed so far whose target name begins with A or a (5):
target gene | DRSC id | z-score, replicate 1 | z-score, replicate 2 | z-score, replicate 3 | z-score, replicate 4
Atat (alpha-tubulin acetylase) | DRSC10392 | 0.19 | 0.11 | – | –
Ak3 (Adenylate kinase 3) | DRSC16075 | 0.11 | 0.81 | – | –
Ada1-1 + Ada1-2 | DRSC01220 | 0.97 | 0.73 | – | –
Ada1-1 + Ada1-2 | DRSC01222 | 0.59 | 0.58 | – | –
Acf (ATP-dependent chromatin assembly factor large subunit) | DRSC14101 | 0.42 | 0.61 | – | –

Additional entries:
target gene | DRSC id | z-score, replicate 1 | z-score, replicate 2 | z-score, replicate 3 | z-score, replicate 4
CG43187 | DRSC05607 | 0.2 | 0.28 | – | –
ND-B14.7 (NADH dehydrogenase (ubiquinone) B14.7 subunit) | DRSC04544 | -0.2 | -0.75 | – | –
CG12493 | DRSC08279 | 0.6 | 0.41 | – | –
CG7335 | DRSC10816 | 0.25 | 0.3 | – | –
CG32176 | DRSC10057 | -0.25 | 0.13 | – | –
CG32176 | DRSC10058 | -0.25 | 0.03 | – | –
TM9SF3 (Transmembrane 9 superfamily protein member 3) | DRSC09747 | -0.17 | -0.07 | – | –
ppk15 (pickpocket 15) | DRSC14733 | -0.43 | -0.27 | – | –
CG32640 + CG32641 | DRSC22885 | -0.11 | -0.11 | – | –
CG12547 | DRSC07759 | 0.29 | 0.19 | – | –
CG3226 | DRSC18296 | 0.38 | 0.74 | – | –
TpnC41C (Troponin C at 41C) | DRSC04916 | 0.16 | 0.22 | – | –
CG13458 | DRSC10005 | 0.25 | 0.34 | – | –
Regnase-1 (Regnase 1) | DRSC14278 | 0.31 | 0.33 | – | –
shd (shade) | DRSC11129 | 0.32 | 0.21 | – | –
CG42560 + CG42559 | DRSC21873 | 0.27 | 0.16 | – | –
Su(P) (Suppressor of ref(2)P sterility) | DRSC11291 | 0.38 | 0.02 | – | –
dsx (doublesex) | DRSC12649 | 0.11 | -0.19 | – | –
dsx (doublesex) | DRSC16934 | 0.51 | 0.48 | 0.71 | 0.18
dsx (doublesex) | DRSC21495 | 0.22 | -0.62 | – | –
Cyp4d20 (Cytochrome P450 4d20) | DRSC08654 | 0.36 | 0.36 | – | –
sced (scrambled) | DRSC04990 | 0.29 | 0.37 | – | –
CG12439 | DRSC02168 | 0.06 | 0 | – | –
Gs1 (Glutamine synthetase 1) | DRSC00753 | 0.26 | -0.25 | – | –
CG13540 | DRSC04182 | 0.42 | 0.47 | – | –
CG11378 | DRSC18627 | 0.39 | 0.38 | – | –
defl (deflated) | DRSC10300 | 1.13 | 0.75 | – | –
mab-21 | DRSC18791 | 0.33 | 0.57 | – | –
CG12299 | DRSC02158 | 0.11 | 0.48 | – | –
MICU3 (Mitochondrial calcium uptake 3) | DRSC13381 | -0.01 | 0.27 | – | –
MICU3 (Mitochondrial calcium uptake 3) | DRSC15613 | 0.36 | 0.36 | – | –
Cbp53E (Calbindin 53E) | DRSC07356 | 0.39 | 0.38 | – | –
CG42855 | DRSC06161 | 0.17 | 0.21 | – | –
PpD6 (Protein phosphatase D6) | DRSC00774 | 0.03 | 0.2 | – | –
CG11134 | DRSC19384 | -1.34 | 0 | – | –
Rpn11 (Regulatory particle non-ATPase 11) | DRSC03422 | -9.19 | -5.8 | – | –
CG9945 | DRSC07347 | -0.06 | 0.37 | – | –
Nbr (Nibbler) | DRSC03166 | 0.17 | 0.19 | – | –
nst (nesthocker) | DRSC09755 | 0.24 | 0.3 | – | –
FucTC (alpha1,3-fucosyltransferase C) | DRSC20966 | 0.59 | 0.42 | – | –
Dcps (Decapping enzyme, scavenger) | DRSC12299 | 0.43 | 0.42 | – | –
Urod (Uroporphyrinogen decarboxylase) | DRSC07569 | 0.45 | 0.47 | – | –
eIF4B (eukaryotic translation initiation factor 4B) | DRSC20983 | 0.15 | 0.03 | – | –
CG2663 | DRSC12314 | 0.52 | 0.52 | – | –
Klp59C (Kinesin-like protein at 59C) | DRSC04348 | 0.14 | 0.27 | – | –
del (deadlock) | DRSC03170 | 0.02 | 0.26 | – | –
RSG7 (Regulator of G-protein signaling 7) | DRSC20274 | 0.04 | 0.2 | – | –
RSG7 (Regulator of G-protein signaling 7) | DRSC22852 | 0.19 | -0.16 | – | –
